For at least one compound, name, drawing or mass did not settle the structure.
Tests used:
[1] = system: HEK293T cells stably expressing STING (HEK293T STING KI); assay: Luciferase activity assay (IFN-β reporter, Dual-Glo) in cells induced with 2'3'fGAMP; format: cell-based; conditions: HEK293T STING KI cells transfected with fGAMP, lysed after 14h; Figure 10a
[2] = system: human truncated STING (hSTING^cd), cytosolic domain aa 139-379, R220H+H232R variant; assay: STING-dependent 2'3'fGAMP fluorescence quenching assay; format: binding; conditions: 0-250 µM hSTING^cd, 15 min room temperature, λex=305 nm, λem=363 nm, 25°C; Figure 10b

**Q.** Which “Interferon-β response (firefly/Renilla luciferase activity, normalized to 2'3'fGAMP buffer control)” value [1] does the source give for `Nc1ncc2ncn([C@@H]3O[C@@H]4COP(=O)(O)O[C@@H]5[C@H](O)[C@@H](COP(=O)(O)O[C@H]4[C@H]3O)O[C@H]5n3cnc4c(=O)[nH]c(N)nc43)c2n1` [2'3'fGAMP, cyclic 2'3' fluorescent GMP-AMP] here?
**A.** The value was “IFN-β response increases with 2'3'fGAMP concentration”.

**Q.** And the “fluorescence of 2'3'fGAMP on STING binding” value [2]?
**A.** The value was “fluorescence considerably decreases with increasing concentrations of STING”.
